The supplement of paper PMC12823440, “Inhibitors supercharge kinase turnover through native proteolytic circuits” (Nature, 2025)
Where a name gives a salt, the structure may show the parent alone. Some of the results follow. The calls rarely recur for the same compound in another form.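 Kinases were expressed as nanoluciferase fusions in K562 cells and luminescence was read every 4 h between 2 and 18 h as percent of control, DMSO set to 100% and a positive control to 0%. A time point counts as decreased when the signal drops significantly (2 sigma). The hit call is the authors' own, does not follow from the count of time points alone, and its rule is not shown.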

Amino acid sequences for entries named in this document (tags omitted). A change or cut given only in a name is not applied to a line headed by its entry.
UniProt P43403: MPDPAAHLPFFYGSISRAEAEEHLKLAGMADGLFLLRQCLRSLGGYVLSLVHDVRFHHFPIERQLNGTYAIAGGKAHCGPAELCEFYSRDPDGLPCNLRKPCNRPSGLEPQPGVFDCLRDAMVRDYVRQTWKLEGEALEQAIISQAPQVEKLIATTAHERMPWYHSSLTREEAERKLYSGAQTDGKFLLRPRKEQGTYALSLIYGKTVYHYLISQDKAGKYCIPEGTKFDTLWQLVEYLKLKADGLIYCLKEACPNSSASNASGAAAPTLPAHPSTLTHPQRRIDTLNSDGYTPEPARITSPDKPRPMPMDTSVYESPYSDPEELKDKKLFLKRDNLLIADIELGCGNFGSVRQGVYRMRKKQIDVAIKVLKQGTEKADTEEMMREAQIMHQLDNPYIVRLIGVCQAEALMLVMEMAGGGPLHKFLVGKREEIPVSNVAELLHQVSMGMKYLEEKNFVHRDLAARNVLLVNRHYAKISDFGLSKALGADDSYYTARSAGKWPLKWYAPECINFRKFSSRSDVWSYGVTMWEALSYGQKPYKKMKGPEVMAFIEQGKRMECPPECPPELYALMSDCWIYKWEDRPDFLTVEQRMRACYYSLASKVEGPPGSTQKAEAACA

Biological target: ZAP70 (UniProt P43403)
Assay: kinase-Nluc reporter destabilization hit call (1 = scored as downregulated) (binary); higher = compound decreases kinase abundance
Conditions: K562; 2-18 h

kinase-Nluc reporter destabilization hit call, inactive:
CN1CC[C@@H](c2c(O)cc(O)c3c(=O)cc(-c4ccc(C(F)(F)F)cc4Cl)oc23)[C@@H]1CO [Voruciclib (hydrochloride)] (10 µM) 0
O=c1cc(-c2cccc3c2Sc2ccccc2S3)oc(N2CCOCC2)c1 (10 µM) 0
O=[N+]([O-])c1ccc(Nc2nc(N3CCOCC3)nc(N3CCOCC3)n2)cc1 (10 µM) 0
c1ccc(-c2nc(=NCCN3CCOCC3)sn2-c2ccccc2)cc1 [VP3.15 (dihydrobromide)] (10 µM) 0
Nc1nc(N)c2nc(-c3cccc(O)c3)cnc2n1 (10 µM) 0
Nc1ncnc2c1c(-c1ccc(Oc3ccccc3)cc1)nn2C1CCN(CCOCCOCCOc2ccc3c(c2)CN(C2CCC(=O)NC2=O)C3=O)CC1 (stereo not drawn) (2.5 µM) 0
C=CC(=O)N1C[C@H](COc2nc(Nc3cnn(C)c3)nc3[nH]cc(Cl)c23)[C@@H](OC)C1 (2.5 µM) 0
Cc1nn(C)c2c1C(c1ccc(C(F)(F)F)cc1)C(C#N)=C(N)O2 (stereo not drawn) (10 µM) 0
O=C(NC1CCOCC1)c1ccc(-c2cc(-c3c[nH]nc3-c3ccccn3)ccn2)cc1 (10 µM) 0
CC/C(=N\NC(=O)c1ccnc(NCCCN2CCOCC2)c1)c1ccc(Cl)cc1O (2.5 µM) 0
COc1cc(N2CCOCC2)ccc1Nc1ncc(Cl)c(Nc2ccccc2NS(C)(=O)=O)n1 (2.5 µM) 0
Cn1cnc([N+](=O)[O-])c1C[N+](C)(C)C/C=C/C(=O)Nc1cc2c(Nc3ccc(Cl)c(Br)c3)ncnc2cn1 [Tarloxotinib (bromide)] (10 µM) 0
O=C(Nc1cccc(C(F)(F)F)c1)c1cccc2cc(Oc3cc(CO)ncn3)ccc12 (10 µM) 0
Oc1ccc(/C=C/c2cc(O)cc(O)c2)cc1 [Resveratrol] (10 µM) 0
O=c1[nH]c(C2CCCN2)nc2c1oc1ccc(Cl)cc12 (stereo not drawn) [XL413 (hydrochloride)] (10 µM) 0
CN(c1ccc(NC(=O)Nc2ccc(OC(F)(F)F)cc2)cc1)c1ccnc(Nc2cccc(S(N)(=O)=O)c2)n1 (2.5 µM) 0
C=C[C@@](C)(/C=C/c1ccc(O)cc1)CCC=C(C)C [Bakuchiol] (10 µM) 0
COc1cc2ncnc(-n3nc(-c4ccccn4)nc3N)c2cc1OC (10 µM) 0
CNc1nc(Nc2ccc(C(=O)N3CCOCC3)cc2OC)ncc1Cl (2.5 µM) 0
CC(C)S(=O)(=O)c1ccc2nccc(Nc3ccc4scnc4c3)c2c1 (10 µM) 0
CC(C)(O)[C@H]1CC[C@H](Nc2ccc3ncc(-c4cccc(C(F)(F)F)c4)n3n2)CC1 (10 µM) 0
CCN(CC)c1ccc2cc(-c3nc4cc(C)ccc4o3)c(=O)oc2c1 (10 µM) 0
CN(C)S(=O)(=O)c1ccc2c(c1)/C(=C/c1cc3c([nH]1)CCCC3)C(=O)N2 (2.5 µM) 0
C=CC(=O)Nc1cc(Nc2nccc(-n3cc(CN(C)C)c(-c4ccccc4)n3)n2)c(OC)cc1N1CCOCC1 [Lazertinib] (10 µM) 0
Cc1ccc2c(Nc3cccc(Cl)c3F)nccc2c1NC(=O)c1csc2c(N)ncnc12 [Belvarafenib] (10 µM) 0
Oc1cc(O)c2c(c1)OC1(c3ccc(O)c(O)c3)Oc3cc(O)c4c(c3C2C1O)OC(c1ccc(O)c(O)c1)C(O)C4 (stereo not drawn) [Procyanidin A1] (10 µM) 0
c1ccc(-c2nc3c(c(-n4ccc5cnccc54)n2)CCC3)nc1 (10 µM) 0
Cc1cc(C)nc(NS(=O)(=O)c2ccc(NC(=S)NC(=O)COc3ccc(Br)cc3Cl)cc2)n1 (2.5 µM) 0
Cc1ccc(NC(=O)c2ccc(CN(CCN(C)C)C(=O)c3cccnc3)cc2)cc1Nc1nccc(-c2cccnc2)n1 [PDGFRα kinase inhibitor 1] (10 µM) 0
C[C@H](Nc1ncnc2[nH]cnc12)c1cc2ccc(F)cc2nc1-c1ccccn1 (10 µM) 0
CN(C)CCC=C1c2ccccc2CCc2ccccc21 [Amitriptyline (hydrochloride)] (2.5 µM) 0
O=C1/C(=C\c2ccc(Cl)cc2)C=C(c2ccccc2)N1c1ccc(O)cc1 (2.5 µM) 0
C[C@@H]1CCNC(=O)c2cc3ccc(C(=O)Nc4nc5ccccc5n4CCCN(C)C)cc3n21 (10 µM) 0
COc1c(Nc2cc(C)[nH]n2)nc(Sc2ccc(S(=O)(=O)Cc3cccc([N+](=O)[O-])c3F)cc2F)nc1N1CCCCC1 [Centrinone-B] (2.5 µM) 0
COc1ccc(/C=C/C(=O)C2(C(=O)/C=C/c3ccc(OC)c(OC)c3)CCCCC2)cc1OC (2.5 µM) 0
CN(C)c1nc2c(Br)c(Br)c(Br)c(Br)c2[nH]1 (10 µM) 0
O=C(Nc1nc(=O)n(Cc2ccc(Cl)cc2)s1)c1ccc(Cl)cc1 (10 µM) 0
Nc1n[nH]c2nc(-c3ccc(NS(=O)(=O)c4cc(Cl)ccc4F)cc3)cnc12 (10 µM) 0
